Assay results as given in PMC5865211, “The orphan GPR50 receptor promotes constitutive TGFβ receptor signaling and protects against cancer development” (Nature Communications, 2018).
These are yes or no findings as the source states them, for the method shown. Binding seen in cells or lysates may run through a third protein. Some binding calls cover weakened binding; strength is not graded here. For part of these data: Tags and fused reporters may be left off the sequences shown. Values belong to the molecule of their own block, whether it stands above or below them.

Chains of the proteins cited; added tags and fusions are not shown.
UniProt O88495: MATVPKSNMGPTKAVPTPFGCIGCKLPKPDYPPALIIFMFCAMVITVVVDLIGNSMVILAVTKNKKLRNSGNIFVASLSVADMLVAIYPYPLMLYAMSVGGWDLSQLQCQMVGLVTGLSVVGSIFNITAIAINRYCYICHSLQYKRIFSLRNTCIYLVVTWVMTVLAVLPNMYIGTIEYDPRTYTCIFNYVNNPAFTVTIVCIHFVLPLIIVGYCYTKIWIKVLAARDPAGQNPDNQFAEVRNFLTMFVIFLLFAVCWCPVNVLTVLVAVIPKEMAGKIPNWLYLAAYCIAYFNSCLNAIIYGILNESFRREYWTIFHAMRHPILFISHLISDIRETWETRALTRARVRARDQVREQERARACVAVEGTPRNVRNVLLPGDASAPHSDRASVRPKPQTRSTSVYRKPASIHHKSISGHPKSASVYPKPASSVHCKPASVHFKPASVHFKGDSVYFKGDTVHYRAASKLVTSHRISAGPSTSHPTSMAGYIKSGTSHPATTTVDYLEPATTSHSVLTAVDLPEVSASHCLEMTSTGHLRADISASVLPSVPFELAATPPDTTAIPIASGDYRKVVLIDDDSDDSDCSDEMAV

Experiments:
[1] = target: T1, TβRI, endogenous mouse (mouse (endogenous in C57/Bl6 tissue and 4T1 cells)) (UniProt Q64729); experiment: proximity ligation; Duolink In Situ Red kit goat/rabbit with anti-GPR50 (goat) and anti-TβRI (rabbit); median eminence and third ventricle of wt and GPR50ko mouse brain slices
T1 sequence: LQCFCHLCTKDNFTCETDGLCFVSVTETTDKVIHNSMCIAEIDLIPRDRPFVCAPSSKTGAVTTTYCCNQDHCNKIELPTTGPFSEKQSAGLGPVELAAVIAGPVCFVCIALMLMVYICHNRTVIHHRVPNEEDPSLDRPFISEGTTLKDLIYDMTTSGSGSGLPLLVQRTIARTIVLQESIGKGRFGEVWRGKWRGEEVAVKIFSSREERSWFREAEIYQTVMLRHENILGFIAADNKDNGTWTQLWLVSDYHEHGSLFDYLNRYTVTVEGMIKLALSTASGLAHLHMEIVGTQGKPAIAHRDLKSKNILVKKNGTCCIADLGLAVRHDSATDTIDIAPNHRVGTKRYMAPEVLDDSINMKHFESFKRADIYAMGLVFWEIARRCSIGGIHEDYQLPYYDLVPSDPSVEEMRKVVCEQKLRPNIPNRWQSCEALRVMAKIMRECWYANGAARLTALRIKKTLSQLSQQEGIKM

[2] = target: T1, TβRI, endogenous mouse (mouse (endogenous in C57/Bl6 tissue and 4T1 cells)); experiment: co-IP; mouse tissue (cortex, total brain, lung) of C57BL/6J wt and GPR50ko mice solubilised in 0.5% CHAPS in TEM buffer, antibody overnight
[3] = target: T2, TβRI-Renilla luciferase 8 (Rluc8) fusion protein (UniProt P36897); experiment: FRET or BRET; BRET competition in HEK293T cells; fixed amounts of TβRI-Rluc8 and YFP fusion, mock or myc-FKBP12 co-expressed; stimulated with TGFβ (0.6 nM, 30 min, 37 °C)
T2 sequence: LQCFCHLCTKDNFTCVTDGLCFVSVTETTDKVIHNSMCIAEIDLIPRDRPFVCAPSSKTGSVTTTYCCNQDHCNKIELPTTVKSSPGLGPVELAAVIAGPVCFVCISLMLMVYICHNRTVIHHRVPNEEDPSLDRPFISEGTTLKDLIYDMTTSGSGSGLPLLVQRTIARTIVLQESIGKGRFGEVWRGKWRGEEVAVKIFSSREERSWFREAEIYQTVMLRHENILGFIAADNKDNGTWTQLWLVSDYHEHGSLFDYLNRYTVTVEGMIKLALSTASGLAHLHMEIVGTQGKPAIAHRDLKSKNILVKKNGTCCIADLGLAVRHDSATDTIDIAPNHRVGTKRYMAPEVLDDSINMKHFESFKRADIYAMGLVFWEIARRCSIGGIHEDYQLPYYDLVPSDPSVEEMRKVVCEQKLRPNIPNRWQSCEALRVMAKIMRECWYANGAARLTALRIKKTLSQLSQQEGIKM

[4] = target: T2, TβRI-Renilla luciferase 8 (Rluc8) fusion protein; experiment: FRET or BRET; BRET donor saturation in intact HEK293T cells; fixed TβRI-Rluc8, increasing YFP fusion; with TGFβ stimulation (0.6 nM, 30 min at 37 °C)
[5] = target: T3, HA-TβRI (UniProt P36897); experiment: co-IP; cell lysates in TNMG buffer with 0.5% NP-40, 2-5 µg antibody 3 h, protein G beads 2 h, washes with 0.05% NP-40; endogenous or transfected proteins (rat tanycytes, NCI-H520 with si-RNA controls, MDA-MB-231, 4T1, HEK293T, SNU638); some samples with TGFβ 2 ng/mL 1 h
T3 sequence: T2 sequence

[6] = target: myc-FKBP12 (UniProt P62942); experiment: as above

Molecule: GPR50Δ4 (from UniProt Q13585 1-617) (receptor)
binding [5]: binds

B1: GPR50Δ4-YFP (receptor, human, UniProt Q13585 1-617, looked up)
chain: MGPTLAVPTPYGCIGCKLPQPEYPPALIIFMFCAMVITIVVDLIGNSMVILAVTKNKKLRNSGNIFVVSLSVADMLVAIYPYPLMLHAMSIGGWDLSQLQCQMVGFITGLSVVGSIFNIVAIAINRYCYICHSLQYERIFSVRNTCIYLVITWIMTVLAVLPNMYIGTIEYDPRTYTCIFNYLNNPVFTVTIVCIHFVLPLLIVGFCYVRIWTKVLAARDPAGQNPDNQLAEVRNFLTMFVIFLLFAVCWCPINVLTVLVAVSPKEMAGKIPNWLYLAAYFIAYFNSCLNAVIYGLLNENFRREYWTIFHAMRHPIIFFSGLISDIREMQEARTLARARAHARDQAREQDRAHACPAVEETPMNVRNVPLPGDAAAGHPDRASGHPKPHSRSSSAYRKSASTHHKSVFSHSKAASGHLKPVSGHSKPASGHPKSATVYPKPASVHFKADSVHFKGDSVHFKPDSVHFKPASSNPKPITGHHVSAGSHSKSAFSAATSHPKPIKPATSHAEPTTADYPKPATTSHPKPTAADNPELSASHCPEIPAIAHPVSDDSDLPESASSPAAGPTKPAASQLESDTIADLPDPTVVTTSTNDYHDVVVIDVEDDPDEMAV
notes: also called GPR50-YFP; source: HEK293T, transfected, in intact cells
binding [3]: binds
binding [4]: binds

B2: Flag-TβRI (receptor, UniProt P36897 34-503)
chain: T2 sequence
binding [6]: binds

Next, values leading:

binding [1]: binds
binding [2]: binds
Molecule: GPR50, endogenous mouse (from UniProt O88495 1-591) (receptor)

binding [3]: binds
binding [4]: binds
Molecule: GPR50wt-YFP (from UniProt Q13585 1-617) (receptor)

binding [6]: binds
B3: HA-TβRI (receptor, UniProt P36897 34-503)
chain: T2 sequence
